PubChem BioAssay AID1508588, Peter MacCallum Cancer Centre – 2020
In all, the deposit lists about 18,000 reagents; below is a random part of them. 790 of them (4.4%) count as active. 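Calls rest on a combination of fold-change classes in drug and vehicle arms, not all shown here.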 Entries without a mark were called inactive. A reagent listed more than once was tested more than once; the source does not tell the runs apart.

Assay: 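Genome-wide search for knock-downs that heighten vemurafenib action in melanoma cells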 (primary screen)
Cells: human WM266.4 melanoma cells (BRAF V600 mutant)
Reagent: siRNA pool against human genes, 40 nM
Time to read-out: 96 h from transfection to read-out
Treatment: vemurafenib 300 nM (about IC25), added 48 h after transfection, for 48 h; comparison arm got DMSO vehicle only
Detection: 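Cell gain (DAPI nuclei at end minus before drug, mean of two replicates) and medium lactate by absorbance per cell, both as ratio to non-targeting siRNA, also grouped into fold-change classes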
Reading the numbers: cell gain with vemurafenib: higher = more cell gain than with non-targeting siRNA; lactate per cell with vemurafenib: higher = more lactate made per cell
Hit rule: 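Enhancement is called by pairing each knock-down's vehicle-arm and drug-arm fold-change classes for viability or glycolysis; which class combinations qualify is not given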
Meaning of the calls: active = enhances vemurafenib effect; inactive = no enhancement seen

target | cell gain with vemurafenib | lactate per cell with vemurafenib
FUS | 0.47 | 0.72
CELA3B | 0.72 | 0.72
NANOS2 | 0.8 | 1.02
VAMP4 | 0.08 | 0.86
CP | 1.03 | 0.93
SH3RF2 | 0.88 | 0.98
GNMT | 0.63 | 0.56
PDLIM2 | 0.9 | 0.78
CCNDBP1 | 0.3 | 1.06
TSPO | 0.75 | 1.08
TRAF3IP2 | 0.11 | 2.4
HESX1 | 1.07 | 0.64
XKR9 | 0.98 | 0.56
NMUR2 | -0.11 (active) | 0.49
NMUR2 | -0.22 (active) | 1.1
CCL18 | 0.75 (active) | 0.12
SLC4A7 | 0.4 | 0.39
TMX2 | 0.28 | 1.7
POLD2 | 0.28 | 2.04
RGS11 | 0.53 | 0.5
LRRC71 | 0.15 | 2.02
CELSR1 | 0.93 | 0.74
H2BC3 | 0.56 | 0.64
GREB1 | 0.72 | 0.36
HOXD10 | 0.79 | 0.56
TMEM242 | 0.87 | 0.7
MZT1 | 0.54 | 1.5
VPS37C | 0.2 | 1.98
NAA20 | 0.68 | 1.02
JCHAIN | 0.31 | 2.77
RGS14 | 0.4 | 0.52
GNA14 | 0.64 | 0.52
TMEM204 | 0.56 | 0.75
B3GAT2 | 0.86 | 1.12
SST | 1.02 | 0.56
BOLA2 | 0.79 | 1.15
MEF2D | 0.92 | 0.42
DBN1 | 0.94 | 1.88
PSG7 | 0.71 | 0.8
PGC | 0.56 | 1.65
LDHC | 0.54 | 0.5
FXYD1 | 0.12 | 1.72
INKA2 | 0.31 | 1.31
DDX55 | 0.25 | 2
CXCL14 | 0.91 | 0.78
ACTN3 | 0.42 | 0.35
POLR2A | 0 | 1.25
STAT4 | 0.59 | 1.96
ACSL3 | 0.67 | 0.73
SRSF6 | 0.49 | 1.34
DCANP1 | 0.43 | 1.06
NME2 | 0.54 | 0.73
BMI1 | 1.13 | 0.67
TAAR6 | 0.53 | 0.9
GANAB | 0.45 | 1.17
TPGS1 | 0 | 1.57
IL21R | 0.59 | 1.87
CARD17P | 0.4 | 1.25
SLC35E1 | 1.67 | 0.4
MAGEC2 | 1.02 | 0.97

Next part, starting with the last 5 of the part before.
target | cell gain with vemurafenib | lactate per cell with vemurafenib
TPGS1 | 0 | 1.57
IL21R | 0.59 | 1.87
CARD17P | 0.4 | 1.25
SLC35E1 | 1.67 | 0.4
MAGEC2 | 1.02 | 0.97
AMY1C | 0.92 | 0.72
BLTP3A | 0.67 | 0.55
ZNHIT6 | 0.92 | 0.65
GFM2 | 0.19 | 1.6
MS4A13 | 0.55 | 0.8
TMEM18 | 1.22 | 0.76
PSMC1 | -0.22 | 4.05
MAPKAPK5 | 0.18 | 3.45
GRIPAP1 | 0.57 | 1.21
CYP2J2 | 0.8 | 0.98
EPHB3 | 0.46 | 1.48
ZNF674 | 0.48 | 0.84
MAFF | 0.78 | 0.9
ADCK1 | 0.69 | 1.08
DPT | 0.13 | 1.66
NRDE2 | 0.64 | 1.44
GMPPA | 1.1 | 1.13
SGSH | 0.69 | 0.65
OR1J4 | 0.49 | 0.44
RIPK3 | 0.66 | 0.76
ACY1 | 0.49 | 0.62
RNF41 | 1.01 | 0.68
HAUS1 | 0.44 | 0.97
IER3IP1 | 0.43 | 0.76
ATG14 | 0.81 | 1.02
TRIM55 | 1.08 | 0.88
DRD4 | 0.86 | 0.44
OR5B21 | 0.65 | 1.33
SLC45A1 | 0.78 | 1.07
OR7D4 | 0.71 | 1.26
CAPZB | 0.3 | 0.95
PRKCH | 0.23 | 2.23
PIGX | 0.21 | 1.42
NDUFA12 | 0.62 | 1.01
M1AP | 0.37 | 1.7
SYT15 | 0.08 | 0.89
MT2A | 1.23 | 0.57
GPATCH3 | 0.45 | 1.06
TST | 0.44 | 0.79
DDX21 | 0.53 | 1.37
HYI | 0.18 | 1.31
SLC27A6 | 0.41 | 0.68
SIL1 | 0.95 | 0.5
DRC10 | 0.16 | 1.49
LPAR6 | 1.1 | 1.3
LCN9 | -0.09 | 1.73
NCKIPSD | 0.31 | 1.36
